# In the supplement of paper PMC8728848:
# The list shows a part of the results.
# What was measured:
# Experiment in all cases: glycan array binding signal (z-score within array); higher = stronger binding
# Settings in all cases: glycan notation: IUPAC condensed, linker removed
# [1] = molecular target: Fuc(a1-2)Gal
# Summary of the method: (§1)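 Arrays were curated from the Consortium for Functional Glycomics database, 3228 in total, and kept only where the protein sequence was available. Binding is expressed as a within-array Z-score. This score was averaged across arrays of the same protein sequence at different concentrations or buffers and across linkers, and negative values can be read as non-binding.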
# [2] = molecular target: Fuc(a1-2)Gal(b1-3)GalNAc
# Summary of the method: as §1
# [3] = molecular target: Fuc(a1-2)Gal(b1-3)GalNAc(a1-3)[Fuc(a1-2)]Gal(b1-4)Glc
# Summary of the method: as §1
# [4] = molecular target: Fuc(a1-2)Gal(b1-3)GalNAc(a1-3)[Fuc(a1-2)]Gal(b1-4)GlcNAc
# Summary of the method: as §1
# [5] = molecular target: Fuc(a1-2)Gal(b1-3)GalNAc(b1-3)Gal
# Summary of the method: as §1
# [6] = molecular target: Fuc(a1-2)Gal(b1-3)GalNAc(b1-3)Gal(a1-4)Gal(b1-4)Glc
# Summary of the method: as §1
# [7] = molecular target: Fuc(a1-2)Gal(b1-3)GalNAc(b1-4)[Neu5Ac(a2-3)]Gal(b1-4)Glc
# Summary of the method: as §1
# [8] = molecular target: Fuc(a1-2)Gal(b1-3)GlcNAc
# Summary of the method: as §1
# [9] = molecular target: Fuc(a1-2)Gal(b1-3)GlcNAc(b1-2)Man(a1-3)[Fuc(a1-2)Gal(b1-3)GlcNAc(b1-2)Man(a1-6)]Man(b1-4)GlcNAc(b1-4)GlcNAc
# Summary of the method: as §1
# [10] = molecular target: Fuc(a1-2)Gal(b1-3)GlcNAc(b1-2)Man(a1-3)[Fuc(a1-2)Gal(b1-3)GlcNAc(b1-2)Man(a1-6)]Man(b1-4)GlcNAc(b1-4)[Fuc(a1-6)]GlcNAc
# Summary of the method: as §1
# [11] = molecular target: Fuc(a1-2)Gal(b1-3)GlcNAc(b1-3)Gal(b1-4)Glc
# Summary of the method: as §1
# [12] = molecular target: Fuc(a1-2)Gal(b1-3)GlcNAc(b1-3)GalNAc
# Summary of the method: as §1
# [13] = molecular target: Fuc(a1-2)Gal(b1-3)GlcNAc(b1-3)[Fuc(a1-2)Gal(b1-3)GlcNAc(b1-6)]GalNAc
# Summary of the method: as §1
# [14] = molecular target: Fuc(a1-2)Gal(b1-3)GlcNAc(b1-3)[Gal(b1-4)GlcNAc(b1-6)]Gal(b1-4)Glc
# Summary of the method: as §1
# [15] = molecular target: Fuc(a1-2)Gal(b1-3)GlcNAc(b1-3)[Neu5Ac(a2-6)Gal(b1-4)GlcNAc(b1-6)]Gal(b1-4)Glc
# Summary of the method: as §1
# [16] = molecular target: Fuc(a1-2)Gal(b1-3)GlcNAc6S
# Summary of the method: as §1
# [17] = molecular target: Fuc(a1-2)Gal(b1-3)[Fuc(a1-4)]GlcNAc
# Summary of the method: as §1
# [18] = molecular target: Fuc(a1-2)Gal(b1-3)[Fuc(a1-4)]GlcNAc(b1-2)Man(a1-3)[Fuc(a1-2)Gal(b1-3)[Fuc(a1-4)]GlcNAc(b1-2)Man(a1-3)]Man(b1-4)GlcNAc(b1-4)GlcNAc
# Summary of the method: as §1
# [19] = molecular target: Fuc(a1-2)Gal(b1-3)[Fuc(a1-4)]GlcNAc(b1-2)Man(a1-3)[Fuc(a1-2)Gal(b1-3)[Fuc(a1-4)]GlcNAc(b1-2)Man(a1-6)]Man(b1-4)GlcNAc(b1-4)[Fuc(a1-6)]GlcNAc(b1-4)[Fuc(a1-6)]GlcNAc
# Summary of the method: as §1
# [20] = molecular target: Fuc(a1-2)Gal(b1-3)[Fuc(a1-4)]GlcNAc(b1-3)[Fuc(a1-3)[Gal(b1-4)]GlcNAc(b1-6)]Gal(b1-4)Glc
# Summary of the method: as §1
# [21] = molecular target: Fuc(a1-2)Gal(b1-3)[Fuc(a1-4)]GlcNAc(b1-3)[Gal(b1-4)GlcNAc(b1-6)]Gal(b1-4)Glc
# Summary of the method: as §1
# [22] = molecular target: Fuc(a1-2)Gal(b1-4)Fuc(a1-3)]GlcNAc(b1-2)Man(a1-3)[Fuc(a1-2)Gal(b1-4)[Fuc(a1-3)]GlcNAc(b1-2)Man(a1-6)]Man(b1-4)GlcNAc(b1-4)GlcNAc
# Summary of the method: as §1
# [23] = molecular target: Fuc(a1-2)Gal(b1-4)Glc
# Summary of the method: as §1
# [24] = molecular target: Fuc(a1-2)Gal(b1-4)Glc6S
# Summary of the method: as §1
# [25] = molecular target: Fuc(a1-2)Gal(b1-4)GlcNAc
# Summary of the method: as §1
# [26] = molecular target: Fuc(a1-2)Gal(b1-4)GlcNAc(b1-2)Man
# Summary of the method: as §1
# [27] = molecular target: Fuc(a1-2)Gal(b1-4)GlcNAc(b1-2)Man(a1-3)[Fuc(a1-2)Gal(b1-4)GlcNAc(b1-2)Man(a1-6)]Man(b1-4)GlcNAc(b1-4)GlcNAc
# Summary of the method: as §1
# [28] = molecular target: Fuc(a1-2)Gal(b1-4)GlcNAc(b1-2)Man(a1-3)[Fuc(a1-2)Gal(b1-4)GlcNAc(b1-2)Man(a1-6)]Man(b1-4)GlcNAc(b1-4)[Fuc(a1-6)]GlcNAc
# Summary of the method: as §1
# [29] = molecular target: Fuc(a1-2)Gal(b1-4)GlcNAc(b1-2)[Fuc(a1-2)Gal(b1-4)GlcNAc(b1-4)]Man(a1-3)[Fuc(a1-2)Gal(b1-4)GlcNAc(b1-2)Man(a1-6)]Man(b1-4)GlcNAc(b1-4)GlcNAc
# Summary of the method: as §1
# [30] = molecular target: Fuc(a1-2)Gal(b1-4)GlcNAc(b1-3)Gal(b1-4)GlcNAc
# Summary of the method: as §1
binder,measurement,setting,value
"CD34 (Homo sapiens), P28906 (protein) MGSSHHHHHHSSGLVPRGSHMSTSLATSPTKPYTSSSPILSDIKAEIKCSGIREVKLTQGICLEQNKTSSCAEFKKDRGEGLARVLCGEEQADADAGAQVCSLLLAQSEVRPQCLLLVLANRTEISSKLQLMKKHQSDLKKLGILDFTEQDVASHQSYSQKT",glycan array binding signal (z-score),[1],1.08
same,glycan array binding signal (z-score),[2],-0.39
same,glycan array binding signal (z-score),[3],-1.43
same,glycan array binding signal (z-score),[4],0.537
same,glycan array binding signal (z-score),[5],0.62
same,glycan array binding signal (z-score),[6],0.043
same,glycan array binding signal (z-score),[7],0.184
same,glycan array binding signal (z-score),[8],-0.415
same,glycan array binding signal (z-score),[9],0.966
same,glycan array binding signal (z-score),[10],-0.885
same,glycan array binding signal (z-score),[11],-0.338
same,glycan array binding signal (z-score),[12],0.208
same,glycan array binding signal (z-score),[13],0.022
same,glycan array binding signal (z-score),[14],-0.908
same,glycan array binding signal (z-score),[15],-0.731
same,glycan array binding signal (z-score),[16],0.261
same,glycan array binding signal (z-score),[17],-0.23
same,glycan array binding signal (z-score),[18],-0.119
same,glycan array binding signal (z-score),[19],0.077
same,glycan array binding signal (z-score),[20],-0.677
same,glycan array binding signal (z-score),[21],-1.33
same,glycan array binding signal (z-score),[22],1.89
same,glycan array binding signal (z-score),[23],-0.59
same,glycan array binding signal (z-score),[24],-0.176
same,glycan array binding signal (z-score),[25],0.713
same,glycan array binding signal (z-score),[26],0.472
same,glycan array binding signal (z-score),[27],-0.664
same,glycan array binding signal (z-score),[28],0.603
same,glycan array binding signal (z-score),[29],-0.374
same,glycan array binding signal (z-score),[30],-1.49

# Exported with bars between the fields: entries from further up.
binder | measurement | setting | value
CD34 (Homo sapiens), P28906 (protein) MGSSHHHHHHSSGLVPRGSHMSTSLATSPTKPYTSSSPILSDIKAEIKCSGIREVKLTQGICLEQNKTSSCAEFKKDRGEGLARVLCGEEQADADAGAQVCSLLLAQSEVRPQCLLLVLANRTEISSKLQLMKKHQSDLKKLGILDFTEQDVASHQSYSQKT | glycan array binding signal (z-score) | [3] | -1.43
same | glycan array binding signal (z-score) | [16] | 0.261
